# The other results are listed elsewhere or left out.
# Protein sequences, listed by entry. Tags and fused reporters are not part of them. Lines headed by an entry give the natural chain unless they say otherwise; changes in a name come on top.
# UniProt O00743: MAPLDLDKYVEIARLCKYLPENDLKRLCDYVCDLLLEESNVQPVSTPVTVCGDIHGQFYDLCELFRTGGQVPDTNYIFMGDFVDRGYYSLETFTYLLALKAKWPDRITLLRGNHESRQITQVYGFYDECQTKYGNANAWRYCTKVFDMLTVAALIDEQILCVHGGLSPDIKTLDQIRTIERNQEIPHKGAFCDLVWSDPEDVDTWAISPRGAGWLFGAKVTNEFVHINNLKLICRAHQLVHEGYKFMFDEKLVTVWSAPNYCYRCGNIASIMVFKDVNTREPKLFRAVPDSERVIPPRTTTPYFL
# UniProt Q8TCS8: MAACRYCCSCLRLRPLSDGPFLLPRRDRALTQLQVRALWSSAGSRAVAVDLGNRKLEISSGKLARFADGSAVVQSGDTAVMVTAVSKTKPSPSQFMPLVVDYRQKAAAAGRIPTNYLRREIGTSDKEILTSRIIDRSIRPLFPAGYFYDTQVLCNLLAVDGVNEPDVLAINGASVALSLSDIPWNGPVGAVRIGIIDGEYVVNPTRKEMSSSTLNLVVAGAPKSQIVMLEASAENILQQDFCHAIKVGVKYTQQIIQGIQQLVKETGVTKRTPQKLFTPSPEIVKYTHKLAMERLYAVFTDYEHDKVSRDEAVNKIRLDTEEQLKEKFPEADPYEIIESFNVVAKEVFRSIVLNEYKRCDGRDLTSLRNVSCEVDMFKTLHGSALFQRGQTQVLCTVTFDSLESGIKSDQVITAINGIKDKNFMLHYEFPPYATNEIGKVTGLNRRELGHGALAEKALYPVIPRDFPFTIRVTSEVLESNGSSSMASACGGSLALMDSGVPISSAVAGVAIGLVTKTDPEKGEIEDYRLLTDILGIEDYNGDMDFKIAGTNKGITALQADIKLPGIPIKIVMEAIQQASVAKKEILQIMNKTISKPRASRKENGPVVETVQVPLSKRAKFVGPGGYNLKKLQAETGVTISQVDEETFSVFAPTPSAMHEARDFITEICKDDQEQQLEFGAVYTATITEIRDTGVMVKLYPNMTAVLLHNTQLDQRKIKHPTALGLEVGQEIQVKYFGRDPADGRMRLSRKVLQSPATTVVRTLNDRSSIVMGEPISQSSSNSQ
# UniProt Q9UKY4: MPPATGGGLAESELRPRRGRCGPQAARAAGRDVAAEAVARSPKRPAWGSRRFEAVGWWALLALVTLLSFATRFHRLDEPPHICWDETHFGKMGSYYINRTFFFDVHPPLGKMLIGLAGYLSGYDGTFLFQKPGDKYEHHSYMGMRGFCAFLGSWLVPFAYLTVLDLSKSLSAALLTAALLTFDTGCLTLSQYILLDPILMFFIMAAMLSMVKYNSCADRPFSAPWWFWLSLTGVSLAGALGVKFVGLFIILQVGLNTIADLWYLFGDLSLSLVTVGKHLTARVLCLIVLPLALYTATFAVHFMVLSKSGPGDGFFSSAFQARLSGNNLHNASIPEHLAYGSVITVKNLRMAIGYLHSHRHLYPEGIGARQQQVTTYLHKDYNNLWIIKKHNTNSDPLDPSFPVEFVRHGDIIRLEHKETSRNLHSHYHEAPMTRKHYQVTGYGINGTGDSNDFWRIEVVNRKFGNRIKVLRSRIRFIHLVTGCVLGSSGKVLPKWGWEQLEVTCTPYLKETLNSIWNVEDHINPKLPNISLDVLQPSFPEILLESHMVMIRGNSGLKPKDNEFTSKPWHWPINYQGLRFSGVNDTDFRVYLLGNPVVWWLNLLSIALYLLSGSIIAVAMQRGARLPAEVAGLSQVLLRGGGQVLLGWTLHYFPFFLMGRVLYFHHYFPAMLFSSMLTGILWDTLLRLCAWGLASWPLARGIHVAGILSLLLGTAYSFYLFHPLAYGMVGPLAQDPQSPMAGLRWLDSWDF
# UniProt Q13162: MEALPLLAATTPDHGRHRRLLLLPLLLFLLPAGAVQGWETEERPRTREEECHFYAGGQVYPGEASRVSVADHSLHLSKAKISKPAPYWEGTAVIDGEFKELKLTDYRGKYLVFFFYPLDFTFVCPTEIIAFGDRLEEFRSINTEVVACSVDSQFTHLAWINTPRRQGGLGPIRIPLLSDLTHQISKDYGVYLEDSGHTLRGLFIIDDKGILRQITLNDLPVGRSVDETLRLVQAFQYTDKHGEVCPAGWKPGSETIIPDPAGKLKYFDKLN
# UniProt O60828: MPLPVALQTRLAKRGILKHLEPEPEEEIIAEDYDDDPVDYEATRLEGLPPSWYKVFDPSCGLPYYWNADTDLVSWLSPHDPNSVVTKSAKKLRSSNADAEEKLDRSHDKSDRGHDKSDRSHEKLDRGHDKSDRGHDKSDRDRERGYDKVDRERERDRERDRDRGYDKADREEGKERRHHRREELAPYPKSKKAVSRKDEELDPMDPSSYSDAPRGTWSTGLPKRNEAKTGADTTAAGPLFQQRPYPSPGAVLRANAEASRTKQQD
# UniProt Q8TD55: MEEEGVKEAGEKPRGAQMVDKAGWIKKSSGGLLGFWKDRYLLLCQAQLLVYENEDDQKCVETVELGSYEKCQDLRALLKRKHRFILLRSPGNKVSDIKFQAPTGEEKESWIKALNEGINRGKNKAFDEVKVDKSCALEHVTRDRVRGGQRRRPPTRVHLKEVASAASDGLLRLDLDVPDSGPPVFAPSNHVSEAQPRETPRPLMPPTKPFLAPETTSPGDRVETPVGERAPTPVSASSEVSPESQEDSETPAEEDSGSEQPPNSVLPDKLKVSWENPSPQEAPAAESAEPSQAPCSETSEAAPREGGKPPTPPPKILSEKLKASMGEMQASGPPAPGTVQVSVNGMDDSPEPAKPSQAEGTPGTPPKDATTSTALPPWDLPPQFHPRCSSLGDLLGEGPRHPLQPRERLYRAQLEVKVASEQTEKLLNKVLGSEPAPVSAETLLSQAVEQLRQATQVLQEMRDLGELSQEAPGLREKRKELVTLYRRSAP
# UniProt Q9Y255: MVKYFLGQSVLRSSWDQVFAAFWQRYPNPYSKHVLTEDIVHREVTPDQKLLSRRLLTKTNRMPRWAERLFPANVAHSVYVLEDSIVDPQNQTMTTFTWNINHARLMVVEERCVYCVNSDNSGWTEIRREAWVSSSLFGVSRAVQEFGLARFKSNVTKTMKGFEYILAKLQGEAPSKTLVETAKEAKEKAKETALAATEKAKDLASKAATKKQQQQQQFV
# UniProt P62140, whole entry: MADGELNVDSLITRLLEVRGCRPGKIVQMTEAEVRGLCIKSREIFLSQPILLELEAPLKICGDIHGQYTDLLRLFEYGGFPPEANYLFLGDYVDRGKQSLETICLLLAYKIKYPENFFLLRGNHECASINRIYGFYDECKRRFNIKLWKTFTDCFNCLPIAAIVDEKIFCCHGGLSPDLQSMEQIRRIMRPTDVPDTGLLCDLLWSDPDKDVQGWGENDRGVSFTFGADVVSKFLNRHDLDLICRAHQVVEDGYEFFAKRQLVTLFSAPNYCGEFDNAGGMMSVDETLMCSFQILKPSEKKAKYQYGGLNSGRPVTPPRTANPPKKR
# UniProt O00625: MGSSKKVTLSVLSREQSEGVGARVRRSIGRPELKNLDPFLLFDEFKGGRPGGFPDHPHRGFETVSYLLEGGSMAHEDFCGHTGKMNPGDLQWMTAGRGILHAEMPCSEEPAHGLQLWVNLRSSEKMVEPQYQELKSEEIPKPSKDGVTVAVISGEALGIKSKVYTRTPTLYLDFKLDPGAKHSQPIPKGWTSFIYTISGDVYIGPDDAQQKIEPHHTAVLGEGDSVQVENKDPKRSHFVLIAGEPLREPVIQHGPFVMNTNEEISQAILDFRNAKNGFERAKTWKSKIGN
# UniProt Q9Y535: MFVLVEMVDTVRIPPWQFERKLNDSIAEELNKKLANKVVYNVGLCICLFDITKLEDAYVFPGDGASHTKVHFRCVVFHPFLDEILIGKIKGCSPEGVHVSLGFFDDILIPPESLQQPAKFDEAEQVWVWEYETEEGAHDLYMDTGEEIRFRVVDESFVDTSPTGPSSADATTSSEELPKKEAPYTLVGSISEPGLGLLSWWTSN
# UniProt P14618, whole entry, looked up: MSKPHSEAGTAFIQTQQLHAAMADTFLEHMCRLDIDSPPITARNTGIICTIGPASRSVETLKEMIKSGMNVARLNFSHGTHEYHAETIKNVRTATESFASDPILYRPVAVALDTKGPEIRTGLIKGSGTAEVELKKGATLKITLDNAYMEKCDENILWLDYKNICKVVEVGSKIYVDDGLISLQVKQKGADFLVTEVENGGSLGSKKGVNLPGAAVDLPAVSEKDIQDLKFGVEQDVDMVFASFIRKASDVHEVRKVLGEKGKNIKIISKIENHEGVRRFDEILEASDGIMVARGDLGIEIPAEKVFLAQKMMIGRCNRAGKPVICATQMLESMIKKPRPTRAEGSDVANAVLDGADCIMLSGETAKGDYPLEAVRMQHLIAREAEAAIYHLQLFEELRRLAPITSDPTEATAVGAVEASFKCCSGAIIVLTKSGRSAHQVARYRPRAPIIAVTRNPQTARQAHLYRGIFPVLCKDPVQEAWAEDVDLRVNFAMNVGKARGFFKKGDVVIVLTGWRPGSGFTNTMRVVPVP
# UniProt O95394: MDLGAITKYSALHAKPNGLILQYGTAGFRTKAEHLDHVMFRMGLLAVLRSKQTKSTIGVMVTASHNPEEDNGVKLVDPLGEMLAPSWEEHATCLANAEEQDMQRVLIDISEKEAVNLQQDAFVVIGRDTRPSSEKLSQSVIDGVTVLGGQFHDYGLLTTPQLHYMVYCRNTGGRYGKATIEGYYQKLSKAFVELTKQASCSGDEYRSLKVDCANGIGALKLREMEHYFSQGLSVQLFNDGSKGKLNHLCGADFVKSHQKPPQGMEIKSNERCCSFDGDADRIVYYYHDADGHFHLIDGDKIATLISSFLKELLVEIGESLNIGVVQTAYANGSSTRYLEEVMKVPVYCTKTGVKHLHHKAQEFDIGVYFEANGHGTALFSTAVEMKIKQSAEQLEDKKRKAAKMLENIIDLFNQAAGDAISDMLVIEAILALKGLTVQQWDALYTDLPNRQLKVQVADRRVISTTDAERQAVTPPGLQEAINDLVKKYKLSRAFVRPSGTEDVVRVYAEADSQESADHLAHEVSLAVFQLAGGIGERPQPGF
# UniProt P51817: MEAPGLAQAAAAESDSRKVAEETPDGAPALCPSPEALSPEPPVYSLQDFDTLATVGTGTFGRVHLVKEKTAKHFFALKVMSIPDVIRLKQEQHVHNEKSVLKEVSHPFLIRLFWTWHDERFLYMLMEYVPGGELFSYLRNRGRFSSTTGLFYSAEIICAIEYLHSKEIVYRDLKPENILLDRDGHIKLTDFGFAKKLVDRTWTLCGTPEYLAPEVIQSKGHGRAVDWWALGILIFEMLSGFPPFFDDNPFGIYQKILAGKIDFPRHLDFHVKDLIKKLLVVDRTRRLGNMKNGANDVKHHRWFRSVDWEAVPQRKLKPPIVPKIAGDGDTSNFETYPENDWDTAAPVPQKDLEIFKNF
# UniProt Q92521: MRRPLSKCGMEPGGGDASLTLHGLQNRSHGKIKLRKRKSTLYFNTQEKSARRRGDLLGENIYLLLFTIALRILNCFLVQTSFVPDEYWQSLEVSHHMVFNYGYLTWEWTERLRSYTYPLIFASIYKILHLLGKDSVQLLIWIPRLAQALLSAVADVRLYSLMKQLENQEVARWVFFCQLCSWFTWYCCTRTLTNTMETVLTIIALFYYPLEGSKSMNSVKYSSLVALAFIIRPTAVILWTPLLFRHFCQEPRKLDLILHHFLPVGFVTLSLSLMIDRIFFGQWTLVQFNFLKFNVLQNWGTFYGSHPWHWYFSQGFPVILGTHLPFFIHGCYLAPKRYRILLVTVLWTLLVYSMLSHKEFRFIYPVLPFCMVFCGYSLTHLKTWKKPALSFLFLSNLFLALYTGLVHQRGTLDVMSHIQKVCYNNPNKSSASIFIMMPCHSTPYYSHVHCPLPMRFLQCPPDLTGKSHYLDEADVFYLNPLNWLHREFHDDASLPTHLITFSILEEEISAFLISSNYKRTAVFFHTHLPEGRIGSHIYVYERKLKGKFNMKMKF
# UniProt O15355: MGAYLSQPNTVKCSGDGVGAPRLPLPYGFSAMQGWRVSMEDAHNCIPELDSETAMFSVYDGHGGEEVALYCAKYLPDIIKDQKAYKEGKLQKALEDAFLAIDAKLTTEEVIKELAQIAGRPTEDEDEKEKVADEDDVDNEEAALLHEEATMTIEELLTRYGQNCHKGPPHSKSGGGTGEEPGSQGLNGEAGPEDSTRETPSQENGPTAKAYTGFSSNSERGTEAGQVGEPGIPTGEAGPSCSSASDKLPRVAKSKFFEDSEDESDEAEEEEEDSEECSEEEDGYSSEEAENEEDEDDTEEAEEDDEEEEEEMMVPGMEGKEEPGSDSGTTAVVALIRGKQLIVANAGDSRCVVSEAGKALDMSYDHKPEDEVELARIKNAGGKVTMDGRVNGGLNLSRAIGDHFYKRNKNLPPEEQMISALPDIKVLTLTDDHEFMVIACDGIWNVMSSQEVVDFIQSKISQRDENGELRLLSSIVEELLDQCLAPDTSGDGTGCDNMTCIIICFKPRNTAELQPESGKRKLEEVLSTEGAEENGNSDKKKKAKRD
# Compound: COc1ccc(Cn2ccc3ccc(C(=O)NO)cc32)cc1
# Assay: dose-dependent thermal stabilisation call (2D-TPP, DLPTP, 10% FDR) (binary (1 = stabilised)); higher = stabilised by the compound
# Conditions: system: HL-60 intact cells; concentration range 0.04-10 µM
row,Target,dose-dependent thermal stabilisation call
1,PNPLA6 (UniProt Q8IY17),inactive: 0
2,PPHLN1 (UniProt Q8NEY8),inactive: 0
3,POM121 (UniProt Q96HA1),inactive: 0
4,POLR2K (UniProt P53803),inactive: 0
5,PPP6C (UniProt O00743),inactive: 0
6,POU2F1 (UniProt P14859),inactive: 0
7,PPP2R2A (UniProt P63151),inactive: 0
8,PNPT1 (UniProt Q8TCS8),inactive: 0
9,POMT2 (UniProt Q9UKY4),inactive: 0
10,PRDX4 (UniProt Q13162),inactive: 0
11,PPP2R3A (UniProt Q06190),inactive: 0
12,PIK3C2A (UniProt O00443),inactive: 0
13,PIBF1 (UniProt Q8WXW3),inactive: 0
14,PQBP1 (UniProt O60828),inactive: 0
15,PLEKHO2 (UniProt Q8TD55),inactive: 0
16,PPP2R1A (UniProt P30153),inactive: 0
17,PGP (UniProt A6NDG6),inactive: 0
18,POLR2B (UniProt P30876),inactive: 0
19,PRELID1 (UniProt Q9Y255),inactive: 0

row,Target,dose-dependent thermal stabilisation call
1,PHF8 (UniProt Q9UPP1),inactive: 0
2,PLCG2 (UniProt P16885),inactive: 0
3,PPP1CB (UniProt P62140),inactive: 0
4,PNKD (UniProt Q8N490),inactive: 0
5,POLB (UniProt P06746),inactive: 0
6,PLCL2 (UniProt Q9UPR0),inactive: 0
7,PIR (UniProt O00625),inactive: 0
8,POLR3H (UniProt Q9Y535),inactive: 0
9,POLA1 (UniProt P09884),inactive: 0
10,PPAPDC2 (UniProt Q8IY26),inactive: 0
11,PKM2 (UniProt P14618),inactive: 0
12,PGM3 (UniProt O95394),inactive: 0
13,PIK3R2 (UniProt O00459),inactive: 0
14,PRKX (UniProt P51817),inactive: 0
15,POFUT2 (UniProt Q9Y2G5),inactive: 0
16,PIP4K2A (UniProt P48426),inactive: 0
17,PPP2R4 (UniProt Q15257),inactive: 0
18,PIGB (UniProt Q92521),inactive: 0
19,PPM1G (UniProt O15355),inactive: 0

# Single entries from the results shown:
# Value of PPP1CB (UniProt P62140) under dose-dependent thermal stabilisation call: inactive: 0
# Value of POLR2B (UniProt P30876) under dose-dependent thermal stabilisation call: inactive: 0
